{"source": "the supplement of paper PMC12889115", "system": "Salmonella enterica serovar Typhimurium SL1344", "experiment": "bacterial growth OD600 after 18 h with compound and polymyxin B; higher = more bacterial growth (less inhibition)", "conditions": "50 µM, Mueller-Hinton broth", "note": "This is one part of the list. Values are raw readings; no control value is given beside them.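 In the initial screen, polymyxin B was used at a concentration that permeabilizes Salmonella's outer membrane but not its inner membrane. Maximum growth was set by DMSO wells with or without polymyxin B. Since plates varied, data were ranked per plate, and compounds giving the lowest OD600 advanced as hits.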", "data": [{"smiles": "COCCN(C)C(=O)c1coc(COc2ccccc2)n1", "values": [{"measurement": "bacterial growth OD600", "setting": "polymyxin B 1 µg/mL", "result": 0.777}]}, {"smiles": "O=C1N(Cc2cccc(F)c2F)CCCC1(O)CNC1CCCC1", "note": "(stereo unspecified)", "values": [{"measurement": "bacterial growth OD600", "setting": "polymyxin B 0.75 µg/mL", "result": 0.799}]}, {"smiles": "O=C(CCC1(Cc2cccs2)CCC(=O)N1)NCc1ccccc1OC(F)(F)F", "note": "(stereo unspecified)", "values": [{"measurement": "bacterial growth OD600", "setting": "polymyxin B 0.75 µg/mL", "result": 0.752}]}, {"smiles": "COc1cc(Cl)ccc1OCc1cc(C(=O)N2CCN(C3CCCCC3)CC2)no1", "values": [{"measurement": "bacterial growth OD600", "setting": "polymyxin B 1 µg/mL", "result": 0.859}]}, {"smiles": "CN1CCCCC1C(=O)NCc1cccnc1-n1cnc2ccccc21", "note": "(stereo unspecified)", "values": [{"measurement": "bacterial growth OD600", "setting": "polymyxin B 1 µg/mL", "result": 0.887}]}, {"smiles": "COc1ccc(CN2CCN(C3CCCC3)CC2)cc1OCC(O)CN1CCCCC1", "note": "(stereo unspecified)", "values": [{"measurement": "bacterial growth OD600", "setting": "polymyxin B 1 µg/mL", "result": 1.09}]}, {"smiles": "O=S(=O)(Cc1ccccc1)NCC1CCCN(C2CSCCSC2)C1", "note": "(stereo unspecified)", "values": [{"measurement": "bacterial growth OD600", "setting": "polymyxin B 0.75 µg/mL", "result": 0.946}]}, {"smiles": "CCS(=O)(=O)c1ncc(CN2CCN(c3cnccn3)CC2)n1Cc1ccccc1", "values": [{"measurement": "bacterial growth OD600", "setting": "polymyxin B 1 µg/mL", "result": 0.856}]}, {"smiles": "Fc1ccccc1Oc1ncccc1CNCc1nc2ccccc2[nH]1", "values": [{"measurement": "bacterial growth OD600", "setting": "polymyxin B 0.75 µg/mL", "result": 0.775}]}, {"smiles": "COc1cccc(CC(C2CCN(C(=O)c3cc(C(C)C)on3)CC2)N(C)C(=O)c2ccn(C)n2)c1", "note": "(stereo unspecified)", "values": [{"measurement": "bacterial growth OD600", "setting": "polymyxin B 0.75 µg/mL", "result": 0.798}]}, {"smiles": "COc1ccc(-c2noc(-c3ccc(N(C)CC4CCCN4C)nc3)n2)cc1", "note": "(stereo unspecified)", "values": [{"measurement": "bacterial growth OD600", "setting": "polymyxin B 0.75 µg/mL", "result": 0.005}]}, {"smiles": "CSc1ncc(CN2CCCC(CNC(=O)c3ccc(F)cc3)C2)cn1", "note": "(stereo unspecified)", "values": [{"measurement": "bacterial growth OD600", "setting": "polymyxin B 1 µg/mL", "result": 0.782}]}, {"smiles": "CCCn1ncc(CN2CCc3[nH]nc(-c4ccc5c(c4)OCO5)c3C2)c1C", "values": [{"measurement": "bacterial growth OD600", "setting": "polymyxin B 0.75 µg/mL", "result": 0.857}]}, {"smiles": "COc1cccc(CCC2CCCN(C(=O)CCN3CCCO3)C2)c1", "note": "(stereo unspecified)", "values": [{"measurement": "bacterial growth OD600", "setting": "polymyxin B 0.75 µg/mL", "result": 0.796}]}, {"smiles": "COC(=O)[C@@H](NC(=O)c1cc(CCc2ccccc2)no1)c1ccccc1", "values": [{"measurement": "bacterial growth OD600", "setting": "polymyxin B 0.75 µg/mL", "result": 0.018}]}, {"smiles": "COC(c1ccc2c(c1)CN(C(=O)c1cccc(C#CC(C)(C)O)c1)CCO2)C1CCCCC1", "note": "(stereo unspecified)", "values": [{"measurement": "bacterial growth OD600", "setting": "polymyxin B 0.75 µg/mL", "result": -0.002}]}, {"smiles": "CCOC(=O)C1(CCc2ccccc2)CCN(C(=O)c2cc[n+]([O-])cc2)CC1", "values": [{"measurement": "bacterial growth OD600", "setting": "polymyxin B 0.75 µg/mL", "result": 0.79}]}, {"smiles": "CCOC(=O)CNC(=O)NCc1cccnc1N1CCCCCCC1", "values": [{"measurement": "bacterial growth OD600", "setting": "polymyxin B 1 µg/mL", "result": 0.706}]}, {"smiles": "COc1cccc(CN(C)C(=O)c2cn(C3CCCCC3)nn2)c1", "values": [{"measurement": "bacterial growth OD600", "setting": "polymyxin B 1 µg/mL", "result": 0.983}]}, {"smiles": "CCCc1ncc(CNCc2cccnc2N(C)C)cn1", "values": [{"measurement": "bacterial growth OD600", "setting": "polymyxin B 1 µg/mL", "result": 0.981}]}, {"smiles": "C/C=C(\\C)C(=O)NCC1Cc2cc(-c3ccc(C(C)=O)s3)cc(Cl)c2O1", "note": "(stereo unspecified)", "values": [{"measurement": "bacterial growth OD600", "setting": "polymyxin B 0.75 µg/mL", "result": 0.003}]}]}
